In patent US20230295260A1, “GLP RECEPTOR AGONISTS” (HEPTARES THERAPEUTICS LIMITED, priority 2020, published 2023):
Entries after “also recorded” stand apart in the source; their conditions may differ. For part of these data: At least one peptide structure holds a part that was inferred or is arguable (an end, a ring closure or a residue). At least one structure is not confirmed: it was looked up by name or label, or the drawing left a doubt. Non-standard residues stand in square brackets, D forms with d. Residues, ends and D or L forms follow the SMILES beside them. ξ: configuration not given here. *: point of attachment. Malonyl(2,2-Me2,histaminyl) = CC(C)(C(=O)NCCc1cnc[nH]1)C(=O)*; Ala(1H-tetrazol-5-yl) = N[C@@H](Cc1nnn[nH]1)C(=O)O; ξαMePhe(2-F) = CC(N)(Cc1ccccc1F)C(=O)O; ξαMeD = CC(N)(CC(=O)O)C(=O)O; Nle = CCCC[C@H](N)C(=O)O; Alloc = C=CCOC(=O)*

Amino acid sequences for entries named in this document (tags omitted). Residues count along the entry.
UniProt P43220, 24-463: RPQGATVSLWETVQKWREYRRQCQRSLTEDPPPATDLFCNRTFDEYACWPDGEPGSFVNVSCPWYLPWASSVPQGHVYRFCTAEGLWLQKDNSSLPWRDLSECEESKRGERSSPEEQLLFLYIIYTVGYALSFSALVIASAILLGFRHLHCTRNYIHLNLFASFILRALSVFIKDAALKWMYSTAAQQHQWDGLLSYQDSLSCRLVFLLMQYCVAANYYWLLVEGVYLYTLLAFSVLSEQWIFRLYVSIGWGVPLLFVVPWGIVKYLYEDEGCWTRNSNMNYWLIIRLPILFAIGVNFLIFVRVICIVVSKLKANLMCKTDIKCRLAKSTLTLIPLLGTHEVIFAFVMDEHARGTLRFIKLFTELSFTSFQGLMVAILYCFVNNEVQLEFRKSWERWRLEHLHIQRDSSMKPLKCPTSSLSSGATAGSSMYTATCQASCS

Key:
C57BL/6J male mice [1] = test: Effect on glucose tolerance (OGTT) in normal mice (FIG. 3); type: in vivo, mouse; conditions: mice fasted 6 h, 270 nmol/kg sc 1 hour before 2 g/kg oral glucose (liraglutide 200 ug/kg iv)
Method: One hour before glucose challenge, Example 1 or 3 (270 nmol/kg) or vehicle (0.1% Tween80 in PBS) was administered as a single subcutaneous injection. […] Serial blood glucose measurements were taken at baseline and at timepoints post oral glucose challenge. (A) Time course of blood glucose levels. N=6 animals / grp. Mean +/-SEM.
C57BL/6J male mice (Charles River, Italy, ~8w) are fasted for 6 hours on the day of testing with free access to drinking water. Prior to drug dosing, pre-dose blood glucose measurements are taken using a glucometer (ACCU-CHEK performa, Roche Diagnostic GmbH). Animals are dosed with either the vehicle (0.1% Tween80 in PBS) or compound (270 nmol/kg) via subcutaneous injection. […] 1 hour after dosing, mice are given 2 g/kg oral gavage of glucose and blood is sampled at defined time points for analysis of blood glucose levels. Timepoints of sampling: t=0 (prior to glucose dosing), 15 mins, 30 mins, 60 mins, 120 mins and 180 mins.

C57BL/6J male mice [2] = test: Effect on intestinal wet weight in normal mice (FIG. 1); type: in vivo, mouse; conditions: once daily sc 270 nmol/kg (liraglutide iv 200 ug/kg), sacrificed on day 3, vs. vehicle
Method: Mice were sacrificed on day 3 and the wet weight of the small intestine was quantified. GLP-2 active peptides show significant enhancement of the small intestinal weight. […] N=6 animals / grp. *p < 0.05 vs. vehicle
C57BL/6J male mice (Charles River, Italy, ~8 weeks) are randomly allocated to the treatment group based on the baseline body weights. Animals are given free access to food and water during the whole duration of the study. Mice are dosed daily with the test compounds via subcutaneous injection. […] The abdominal cavity will be opened and the intestinal tissue is excised carefully to avoid perforation. Tissue from the upper small intestine (15 cm segment from the pylorus) is collected. The bowel is cleaned by flushing through with ice cold PBS to remove any feces.

human GLP2 receptor = biological target: T1, human GLP2 receptor (Homo sapiens, UniProt O95838); test: cAMP accumulation assay (HTRF), functional agonism of human GLP2 receptor in HEK cells; conditions: human GLP2 receptor BacMam, 45 min 37° C.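 Also: HEK cells transduced via BacMam to express human GLP2 receptor, agonist-stimulated cAMP measured by HTRF after 45 min at 37 °C in HBSS with 0.5 mM IBMX.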
T1 sequence (O95838 1-553): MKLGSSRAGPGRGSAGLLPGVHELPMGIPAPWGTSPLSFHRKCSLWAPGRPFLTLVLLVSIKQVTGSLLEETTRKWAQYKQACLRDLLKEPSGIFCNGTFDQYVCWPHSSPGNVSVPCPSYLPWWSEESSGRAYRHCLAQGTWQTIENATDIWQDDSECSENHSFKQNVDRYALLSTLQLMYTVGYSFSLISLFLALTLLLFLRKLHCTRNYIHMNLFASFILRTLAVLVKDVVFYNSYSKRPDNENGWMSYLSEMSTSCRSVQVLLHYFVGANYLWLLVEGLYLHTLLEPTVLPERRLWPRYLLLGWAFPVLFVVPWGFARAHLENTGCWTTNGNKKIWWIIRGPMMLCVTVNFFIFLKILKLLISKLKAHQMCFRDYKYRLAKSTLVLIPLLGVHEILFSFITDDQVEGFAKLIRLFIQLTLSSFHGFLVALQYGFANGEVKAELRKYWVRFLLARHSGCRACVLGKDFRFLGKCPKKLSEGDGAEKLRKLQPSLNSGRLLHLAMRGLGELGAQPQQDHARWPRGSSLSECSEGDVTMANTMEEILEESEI

mouse GLP2 receptor = biological target: T2, mouse GLP2 receptor (Mus musculus, UniProt Q5IXF8); test: cAMP accumulation assay (HTRF), functional agonism of mouse GLP2 receptor in HEK cells; type: cell-based; conditions: HEK cells transiently transfected, 45 min 37° C.
T2 construct: expressed in transfected cells; host or cells: HEK cells, transient transfection with GeneJuice
T2 sequence (Q5IXF8 1-512): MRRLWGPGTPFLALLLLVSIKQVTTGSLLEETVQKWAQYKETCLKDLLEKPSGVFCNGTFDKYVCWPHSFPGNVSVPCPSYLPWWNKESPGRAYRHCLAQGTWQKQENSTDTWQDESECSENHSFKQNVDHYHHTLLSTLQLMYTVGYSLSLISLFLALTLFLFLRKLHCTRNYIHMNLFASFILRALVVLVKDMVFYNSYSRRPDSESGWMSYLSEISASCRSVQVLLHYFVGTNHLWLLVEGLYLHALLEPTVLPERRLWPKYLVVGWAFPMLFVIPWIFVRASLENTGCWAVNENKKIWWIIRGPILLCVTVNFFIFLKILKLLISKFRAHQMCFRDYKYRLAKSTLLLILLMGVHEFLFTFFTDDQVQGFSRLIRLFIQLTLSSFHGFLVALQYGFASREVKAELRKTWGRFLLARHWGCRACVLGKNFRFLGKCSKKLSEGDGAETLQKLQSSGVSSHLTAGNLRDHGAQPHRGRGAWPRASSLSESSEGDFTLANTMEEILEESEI

human GLP1 receptor = biological target: T3, human GLP1 receptor (Homo sapiens, UniProt P43220); test: cAMP accumulation assay (HTRF), functional agonism of human GLP1 receptor in HEK cells; type: cell-based; conditions: human GLP1 receptor BacMam, 45 min 37° C.
T3 construct: expressed in transfected cells; host or cells: HEK cells, BacMam virus transduction

mouse GLP1 receptor = biological target: T4, mouse GLP1 receptor (Mus musculus, UniProt O35659); test: cAMP accumulation assay (HTRF), functional agonism of mouse GLP1 receptor in HEK cells; type: cell-based; conditions: HEK cells transiently transfected, 45 min 37° C.
T4 construct: expressed in transfected cells; host or cells: HEK cells, transient transfection with GeneJuice
T4 sequence (O35659 22-463): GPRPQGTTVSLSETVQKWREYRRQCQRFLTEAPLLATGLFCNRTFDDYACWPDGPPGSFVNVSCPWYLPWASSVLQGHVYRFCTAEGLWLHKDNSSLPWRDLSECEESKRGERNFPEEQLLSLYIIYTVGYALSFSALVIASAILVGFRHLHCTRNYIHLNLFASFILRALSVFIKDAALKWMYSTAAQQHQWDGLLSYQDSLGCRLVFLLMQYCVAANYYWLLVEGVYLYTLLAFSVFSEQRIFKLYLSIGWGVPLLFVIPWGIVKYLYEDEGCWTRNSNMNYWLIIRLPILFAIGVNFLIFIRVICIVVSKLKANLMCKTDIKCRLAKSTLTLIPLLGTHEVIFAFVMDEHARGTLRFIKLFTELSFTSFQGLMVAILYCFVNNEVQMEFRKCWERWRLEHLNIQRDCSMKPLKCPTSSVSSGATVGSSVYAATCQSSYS

Structure (SMILES)	peak blood glucose concentration in OGTT (C57BL/6J male mice [1])	wet weight of the small intestine (C57BL/6J male mice [2])	Human GLP-2R agonist cAMP pEC50 (human GLP2 receptor)	Mouse GLP-2R agonist cAMP pEC50 (mouse GLP2 receptor)	Human GLP-1R agonist cAMP pEC50 (human GLP1 receptor)	Mouse GLP-1 R agonist cAMP pEC50 (mouse GLP1 receptor)
CCCCCCCCCCCCCCCC(=O)N[C@@H](CCC(=O)NCCCC[C@H](NC(=O)[C@H](C)NC(=O)[C@H](C)NC(=O)[C@H](CCC(N)=O)NC(=O)CNC(=O)[C@H](CCC(=O)O)NC(=O)[C@H](CC(C)C)NC(=O)[C@H](Cc1ccc(O)cc1)NC(=O)[C@H](CO)NC(=O)[C@H](CO)NC(=O)[C@@H](NC(=O)[C@H](CC(=O)O)NC(=O)[C@H](CO)NC(=O)[C@@H](NC(=O)[C@H](Cc1ccccc1)NC(=O)[C@@H](NC(=O)CNC(=O)[C@H](CCC(=O)O)NC(=O)[C@H](C)NC(=O)[C@@H](N)Cc1cnc[nH]1)[C@@H](C)O)[C@@H](C)O)C(C)C)C(=O)N[C@@H](CCC(=O)O)C(=O)N[C@@H](Cc1ccccc1)C(=O)N[C@H](C(=O)N[C@@H](C)C(=O)N[C@@H](Cc1c[nH]c2ccccc12)C(=O)N[C@@H](CC(C)C)C(=O)N[C@H](C(=O)N[C@@H](CCCNC(=N)N)C(=O)NCC(=O)N[C@@H](CCCNC(=N)N)C(=O)NCC(=O)O)C(C)C)[C@@H](C)CC)C(=O)O [liraglutide, reference compound]	significantly reduced	no evidence of activity; also recorded: did not enhance bowel weight	–	–	–	–
C=CCOC(=O)NCCCC[C@H](NC(=O)[C@H](CC(C)C)NC(=O)[C@H](CC(=O)O)NC(=O)[C@H](CC(C)C)NC(=O)[C@@H](NC(=O)[C@@H](NC(=O)[C@@H](Cc1ccccc1)NC(=O)[C@H](CCCC)NC(=O)[C@H](CCC(=O)O)NC(=O)[C@H](CC(=O)O)NC(=O)[C@H](CO)NC(=O)[C@H](Cc1ccccc1)NC(=O)[C@H](CO)NC(=O)[C@H](C)NC(=O)[C@H](Cc1nn[nH]n1)NC(=O)C(C)(C)C(=O)NCCc1c[nH]cn1)[C@@H](C)O)[C@@H](C)CC)C(=O)N[C@@H](C)C(=O)N[C@@H](C)C(=O)N[C@@H](CCCCN)C(=O)N[C@@H](CC(=O)O)C(=O)N[C@@H](Cc1ccccc1)C(=O)N[C@H](C(=O)N[C@@H](CC(N)=O)C(=O)N[C@@H](Cc1c[nH]c2ccccc12)C(=O)N[C@@H](CC(C)C)C(=O)N[C@H](C(=O)N[C@@H](CCC(N)=O)C(=O)N[C@H](C(=O)N[C@@H](CCCCN)C(=O)N[C@H](C(=O)N[C@H](C(=O)N[C@@H](CC(=O)O)C(N)=O)[C@@H](C)O)[C@@H](C)CC)[C@@H](C)O)[C@@H](C)CC)[C@@H](C)CC [Example 12] ({Malonyl(2,2-Me2,histaminyl)}-[Ala(1H-tetrazol-5-yl)]ASFSDE[Nle][dF]TILDLK(Alloc)AAKDFINWLIQTKITD-NH2)	–	–	11.1	9.3	7.7	7.8
C=CCOC(=O)NCCCC[C@H](NC(=O)[C@H](CC(C)C)NC(=O)[C@H](CC(=O)O)NC(=O)[C@H](CC(C)C)NC(=O)[C@@H](NC(=O)[C@@H](NC(=O)[C@@H](Cc1ccccc1)NC(=O)[C@H](CCCC)NC(=O)[C@H](CCC(=O)O)NC(=O)[C@H](CC(=O)O)NC(=O)[C@H](CO)NC(=O)C(C)(Cc1ccccc1F)NC(=O)[C@H](CO)NC(=O)CNC(=O)[C@H](CC(=O)O)NC(=O)C(C)(C)C(=O)NCCc1c[nH]cn1)[C@@H](C)O)[C@@H](C)CC)C(=O)N[C@@H](C)C(=O)N[C@@H](C)C(=O)N[C@@H](CCCCN)C(=O)N[C@@H](CC(=O)O)C(=O)N[C@@H](Cc1ccccc1)C(=O)N[C@H](C(=O)N[C@@H](CC(N)=O)C(=O)N[C@@H](Cc1c[nH]c2ccccc12)C(=O)N[C@@H](CC(C)C)C(=O)N[C@H](C(=O)N[C@@H](CCC(N)=O)C(=O)N[C@H](C(=O)N[C@@H](CCCCN)C(=O)N[C@H](C(=O)N[C@H](C(=O)N[C@@H](CC(=O)O)C(N)=O)[C@@H](C)O)[C@@H](C)CC)[C@@H](C)O)[C@@H](C)CC)[C@@H](C)CC (stereo partly drawn) [Example 4] ({Malonyl(2,2-Me2,histaminyl)}-DGS[ξαMePhe(2-F)]SDE[Nle][dF]TILDLK(Alloc)AAKDFINWLIQTKITD-NH2; C-terminus assumed)	–	–	10.9	–	9.5	–
C=CCOC(=O)NCCCC[C@H](NC(=O)[C@H](CC(C)C)NC(=O)[C@H](CC(=O)O)NC(=O)[C@H](CC(C)C)NC(=O)[C@@H](NC(=O)[C@@H](NC(=O)[C@@H](Cc1ccccc1)NC(=O)[C@H](CCCC)NC(=O)[C@H](CCC(=O)O)NC(=O)[C@H](CC(=O)O)NC(=O)[C@H](CO)NC(=O)[C@H](Cc1ccccc1)NC(=O)[C@H](CO)NC(=O)CNC(=O)[C@H](Cc1nn[nH]n1)NC(=O)C(C)(C)C(=O)NCCc1c[nH]cn1)[C@@H](C)O)[C@@H](C)CC)C(=O)N[C@@H](C)C(=O)N[C@@H](C)C(=O)N[C@@H](CCCCN)C(=O)N[C@@H](CC(=O)O)C(=O)N[C@@H](Cc1ccccc1)C(=O)N[C@H](C(=O)N[C@@H](CC(N)=O)C(=O)N[C@@H](Cc1c[nH]c2ccccc12)C(=O)N[C@@H](CC(C)C)C(=O)N[C@H](C(=O)N[C@@H](CCC(N)=O)C(=O)N[C@H](C(=O)N[C@@H](CCCCN)C(=O)N[C@H](C(=O)N[C@H](C(=O)NC(C)(CC(=O)O)C(N)=O)[C@@H](C)O)[C@@H](C)CC)[C@@H](C)O)[C@@H](C)CC)[C@@H](C)CC (stereo partly drawn) [Example 20] ({Malonyl(2,2-Me2,histaminyl)}-[Ala(1H-tetrazol-5-yl)]GSFSDE[Nle][dF]TILDLK(Alloc)AAKDFINWLIQTKIT[ξαMeD]-NH2; C-terminus assumed)	–	–	11.1	9.9	8.6	8.7
